{"sequences": {"note": "The chains behind the UniProt entries cited, without tags or fusion partners. Where a name states a change or a piece, a line headed by the entry shows the natural chain unless it says otherwise.", "UniProt Q15561": "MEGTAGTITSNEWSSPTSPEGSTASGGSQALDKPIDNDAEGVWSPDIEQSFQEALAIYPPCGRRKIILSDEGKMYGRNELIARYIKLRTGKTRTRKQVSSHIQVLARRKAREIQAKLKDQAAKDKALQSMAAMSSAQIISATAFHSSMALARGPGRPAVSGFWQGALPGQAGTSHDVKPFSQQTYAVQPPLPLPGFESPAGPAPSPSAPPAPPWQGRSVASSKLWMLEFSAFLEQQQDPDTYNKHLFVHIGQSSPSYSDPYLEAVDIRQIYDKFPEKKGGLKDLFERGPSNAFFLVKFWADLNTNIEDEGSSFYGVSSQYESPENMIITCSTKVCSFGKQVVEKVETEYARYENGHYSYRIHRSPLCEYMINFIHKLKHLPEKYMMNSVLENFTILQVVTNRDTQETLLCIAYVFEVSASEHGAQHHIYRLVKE", "UniProt Q9GZV5": "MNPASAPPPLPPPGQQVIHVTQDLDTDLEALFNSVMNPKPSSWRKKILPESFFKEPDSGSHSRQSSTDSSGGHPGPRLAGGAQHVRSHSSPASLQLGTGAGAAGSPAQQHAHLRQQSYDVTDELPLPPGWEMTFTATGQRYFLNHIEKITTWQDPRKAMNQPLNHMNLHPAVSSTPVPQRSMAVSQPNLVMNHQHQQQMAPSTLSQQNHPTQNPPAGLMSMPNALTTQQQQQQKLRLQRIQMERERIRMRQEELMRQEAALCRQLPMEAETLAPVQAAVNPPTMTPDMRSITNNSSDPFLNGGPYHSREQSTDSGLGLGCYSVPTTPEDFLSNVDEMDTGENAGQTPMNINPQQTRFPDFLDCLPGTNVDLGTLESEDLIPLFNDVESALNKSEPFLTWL"}, "source": "paper PMC12559216", "target": "TEAD4 (human (endogenous in A375R)) (UniProt Q15561)", "experiment": "co-IP; YAP and TAZ bound to TEAD4 in A375R cells, with LINC01198 knockdown or overexpression; detection method not stated", "note": "No constants are given. Whether binding was seen depends on the method and setting. In cells and extracts the contact can be indirect. Some binding calls cover weakened binding; strength is not graded here."}
{"substance": "TAZ (from UniProt Q9GZV5 1-400)", "values": [{"measurement": "binding", "value": "binds"}]}
